Source: the supplement of paper PMC6078165

Tested on: HCC1143
Test: relative JC-1 red fluorescence (viability) vs pre-drug, coculture with fibroblast (fraction); higher = more viable cancer cells
Description: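 JC-1 labelled TNBC cells cocultured 1:1 (1,500 cells each) with CellTrace Violet stained primary or stromal fibroblasts in 384-well plates in FluoroBrite medium, treated with one of 42 anticancer drugs at 0.1, 1, 10 or 100 uM. JC-1 red fluorescence (mitochondrial integrity in cancer cells only) was read by plate reader every 8 h for 72 h. Values are normalised to each well's pre-drug value. The stock of one drug was tenfold lower, so its dose labels may be too high.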

CO[C@H]1C[C@@H]2CC[C@@H](C)[C@@](O)(O2)C(=O)C(=O)N2CCCC[C@H]2C(=O)O[C@H]([C@H](C)C[C@@H]2CC[C@@H](OCCO)[C@H](OC)C2)CC(=O)[C@H](C)/C=C(\C)[C@@H](O)[C@@H](OC)C(=O)[C@H](C)C[C@H](C)/C=C/C=C/C=C/1C [Everolimus]
relative JC-1 red fluorescence
Settings | 8 h | 16 h | 24 h | 32 h | 40 h | 48 h | 56 h | 64 h | 72 h
0.1 µM, coculture fibroblast: C12385 | 0.8324 | 0.718 | 0.6593 | 0.586 | 0.525 | 0.48 | 0.441 | 0.41 | 0.394
0.1 µM, coculture fibroblast: H6013 | 0.719 | 0.621 | 0.578 | 0.56 | 0.5 | 0.49 | 0.458 | 0.447 | 0.422
0.1 µM, coculture fibroblast: H6019 | 0.7622 | 0.671 | 0.61 | 0.558 | 0.519 | 0.497 | 0.463 | 0.432 | 0.415
0.1 µM, coculture fibroblast: H6076 | 0.769 | 0.8239 | 0.731 | 0.649 | 0.614 | 0.579 | 0.535 | 0.509 | 0.52
0.1 µM, coculture fibroblast: H6231 | 0.828 | 0.828 | 0.733 | 0.637 | 0.6 | 0.572 | 0.533 | 0.497 | 0.484
0.1 µM, coculture fibroblast: HADF | 0.737 | 0.6844 | 0.6551 | 0.6451 | 0.554 | 0.537 | 0.495 | 0.477 | 0.455
0.1 µM, coculture fibroblast: HCFa | 0.7915 | 0.7 | 0.652 | 0.636 | 0.563 | 0.551 | 0.51 | 0.477 | 0.4456
0.1 µM, coculture fibroblast: HCPF | 0.809 | 0.7608 | 0.703 | 0.642 | 0.6076 | 0.5841 | 0.54391 | 0.5181 | 0.5081
0.1 µM, coculture fibroblast: HHSteC | 0.81 | 0.743 | 0.698 | 0.665 | 0.584 | 0.563 | 0.521 | 0.492 | 0.451
0.1 µM, coculture fibroblast: HMF | 0.802 | 0.821 | 0.747 | 0.682 | 0.652 | 0.624 | 0.589 | 0.559 | 0.545
0.1 µM, coculture fibroblast: HPFa | 0.8947 | 0.799 | 0.758 | 0.663 | 0.597 | 0.586 | 0.544 | 0.513 | 0.489
0.1 µM, coculture fibroblast: HUF | 0.868 | 0.791 | 0.739 | 0.658 | 0.611 | 0.593 | 0.552 | 0.522 | 0.502
0.1 µM, coculture fibroblast: Hs5 | 0.82752 | 0.859 | 0.7937 | 0.7466 | 0.6828 | 0.629 | 0.587 | 0.552 | 0.551
0.1 µM, coculture fibroblast: Hs27A | 0.6768 | 0.5696 | 0.52844 | 0.5502 | 0.425 | 0.405 | 0.372 | 0.352 | 0.359
0.1 µM, coculture fibroblast: Hs343T | 0.813 | 0.8691 | 0.824 | 0.75 | 0.728 | 0.695 | 0.653 | 0.624 | 0.595
0.1 µM, coculture fibroblast: WS1 | 0.825 | 0.752 | 0.691 | 0.595 | 0.522 | 0.48 | 0.447 | 0.416 | 0.397
1 µM, coculture fibroblast: C12385 | 0.84315 | 0.784 | 0.724 | 0.67 | 0.618 | 0.602 | 0.581 | 0.562 | 0.561
1 µM, coculture fibroblast: H6013 | 0.796 | 0.75 | 0.752 | 0.749 | 0.701 | 0.71 | 0.676 | 0.668 | 0.622
1 µM, coculture fibroblast: H6019 | 0.812 | 0.724 | 0.6612 | 0.60257 | 0.5717 | 0.561 | 0.528 | 0.498 | 0.489
1 µM, coculture fibroblast: H6076 | 0.807 | 0.8182 | 0.775 | 0.736 | 0.688 | 0.675 | 0.643 | 0.625 | 0.638
1 µM, coculture fibroblast: H6231 | 0.795 | 0.806 | 0.723 | 0.623 | 0.623 | 0.596 | 0.557 | 0.526 | 0.51
1 µM, coculture fibroblast: HADF | 0.756 | 0.684 | 0.646 | 0.652 | 0.539 | 0.504 | 0.471 | 0.448 | 0.445
1 µM, coculture fibroblast: HCFa | 0.796 | 0.6986 | 0.667 | 0.652 | 0.571 | 0.547 | 0.495 | 0.452 | 0.409
1 µM, coculture fibroblast: HCPF | 0.8066 | 0.771 | 0.728 | 0.694 | 0.6393 | 0.607 | 0.563 | 0.534 | 0.526
1 µM, coculture fibroblast: HHSteC | 0.842 | 0.772 | 0.7441 | 0.72288 | 0.6512 | 0.627 | 0.579 | 0.547 | 0.509
1 µM, coculture fibroblast: HMF | 0.767 | 0.824 | 0.736 | 0.621 | 0.612 | 0.577 | 0.521 | 0.491 | 0.466
1 µM, coculture fibroblast: HPFa | 0.915 | 0.828 | 0.783 | 0.705 | 0.626 | 0.599 | 0.558 | 0.525 | 0.5
1 µM, coculture fibroblast: HUF | 0.905 | 0.83137 | 0.778 | 0.708 | 0.655 | 0.635 | 0.585 | 0.559 | 0.538
1 µM, coculture fibroblast: Hs5 | 0.8335 | 0.886 | 0.8278 | 0.764 | 0.701 | 0.663 | 0.626 | 0.591 | 0.569
1 µM, coculture fibroblast: Hs27A | 0.7392 | 0.685 | 0.6616 | 0.681 | 0.6 | 0.605 | 0.572 | 0.566 | 0.531
1 µM, coculture fibroblast: Hs343T | 0.7724 | 0.825 | 0.751 | 0.642 | 0.6155 | 0.568 | 0.51 | 0.484 | 0.454
1 µM, coculture fibroblast: WS1 | 0.8074 | 0.72665 | 0.6513 | 0.5814 | 0.5222 | 0.4987 | 0.456 | 0.429 | 0.421

Values are relative to the signal before dosing, not to a vehicle control; the signal also falls without drug.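 Labels refer to human fibroblasts, largely primary: uterine (C12385, HUF), lung (H6013), bone (Hs27A), adrenal (HADF), skin (WS1), plus mammary HMF and breast cancer-associated Hs343T. Cancer lines are basal-like or mesenchymal-like triple-negative breast cancer. The paper counts as hits responses shifting over 3x the replicate standard deviation. The tissue of the other fibroblasts is not given here.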
